Paper doi:10.1101/2021.10.06.463336
These are yes or no findings as the source states them, for the method shown. In cells and extracts the contact can be indirect. These calls come from enrichment with a bait or labelling near it, and not all partners need be listed.

Target: nsP3-mScarlet (Sindbis virus)
Assay: affinity purification with mass spectrometry

B1: G3BP2 (protein, UniProt Q9UN86 1-482)
chain: MVMEKPSPLLVGREFVRQYYTLLNKAPEYLHRFYGRNSSYVHGGVDASGKPQEAVYGQNDIHHKVLSLNFSECHTKIRHVDAHATLSDGVVVQVMGLLSNSGQPERKFMQTFVLAPEGSVPNKFYVHNDMFRYEDEVFGDSEPELDEESEDEVEEEQEERQPSPEPVQENANSGYYEAHPVTNGIEEPLEESSHEPEPEPESETKTEELKPQVEEKNLEELEEKSTTPPPAEPVSLPQEPPKAFSWASVTSKNLPPSGTVSSSGIPPHVKAPVSQPRVEAKPEVQSQPPRVREQRPRERPGFPPRGPRPGRGDMEQNDSDNRRIIRYPDSHQLFVGNLPHDIDENELKEFFMSFGNVVELRINTKGVGGKLPNFGFVVFDDSEPVQRILIAKPIMFRGEVRLNVEEKKTRAARERETRGGGDDRRDIRRNDRGPGGPRGIVGGGMMRDRDGRGPPPRGGMAQKLGSGRGTGQMEGRFTGQRR
B1 was tested, and the binding was “binds”.
